Measured values from patent publication EP4694930A1.
No constants are given. Whether binding was seen depends on the method and setting. Some binding calls cover weakened binding; strength is not graded here.

How the values were obtained:
[1] = target: T1, Gremlin1 (GREM1) in BZ-CRC-01 colorectal cancer PDX tumor sections (UniProt O60565); experiment: IHC on FFPE BZ-CRC-01 PDX tumor sections with biotinylated antibody
T1 sequence (looked up): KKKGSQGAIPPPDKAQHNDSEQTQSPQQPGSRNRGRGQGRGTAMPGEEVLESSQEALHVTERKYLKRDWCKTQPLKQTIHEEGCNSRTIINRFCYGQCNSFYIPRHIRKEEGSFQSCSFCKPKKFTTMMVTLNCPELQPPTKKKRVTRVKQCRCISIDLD

[2] = target: T1, Gremlin1 (GREM1) in BZ-CRC-01 colorectal cancer PDX tumor sections; experiment: IHC on FFPE BZ-CRC-01 PDX tumor sections, 20 ug/mL biotinylated antibody, streptavidin-HRP detection

B1: Hu14E3 HaLa Biotin (biotinylated humanized anti-GREM1 antibody Hu14E3 HaLa) (antibody, V domains shown)
VH: QVQLVQSGSELKKPGASVKVSCKASGYTFTTYGMAWMRQAPGQGLEWMGWINTLSGEPTYADDFKGRFVFSLDTSVSTAYLQISSLKAEDTAVYYCAREPMDYWGQGTMVTVSS
VL: DVVMTQSPLSLPVTLGQPASISCKSSQSLLDSDGKTYLSWLQQRPGQSPRRLIYLVSKLDSGVPDRFSGSGSGTDFTLKISRVEAEDVGVYYCWQGAHFPLTFGQGTKLEIK
binding [1]: binds | binding [2]: binds
